Assay results published in PMC7335050, “Characterization of an alternative BAK-binding site for BH3 peptides” (Nature Communications, 2020).
Substitutions are numbered along the chain they refer to. No constants are given. Whether binding was seen depends on the method and setting. Binding seen in cells or lysates may run through a third protein. Some binding calls cover weakened binding; strength is not graded here. Tags and fused reporters may be left off the sequences shown.

Chains of the proteins cited; added tags and fusions are not shown.
UniProt P10417: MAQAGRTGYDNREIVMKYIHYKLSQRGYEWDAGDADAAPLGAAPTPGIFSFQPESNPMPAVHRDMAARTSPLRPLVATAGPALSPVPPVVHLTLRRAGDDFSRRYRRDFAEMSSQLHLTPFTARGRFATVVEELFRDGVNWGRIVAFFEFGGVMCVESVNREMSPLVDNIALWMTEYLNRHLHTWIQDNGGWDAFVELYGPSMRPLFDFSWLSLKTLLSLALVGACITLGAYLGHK
UniProt P97287: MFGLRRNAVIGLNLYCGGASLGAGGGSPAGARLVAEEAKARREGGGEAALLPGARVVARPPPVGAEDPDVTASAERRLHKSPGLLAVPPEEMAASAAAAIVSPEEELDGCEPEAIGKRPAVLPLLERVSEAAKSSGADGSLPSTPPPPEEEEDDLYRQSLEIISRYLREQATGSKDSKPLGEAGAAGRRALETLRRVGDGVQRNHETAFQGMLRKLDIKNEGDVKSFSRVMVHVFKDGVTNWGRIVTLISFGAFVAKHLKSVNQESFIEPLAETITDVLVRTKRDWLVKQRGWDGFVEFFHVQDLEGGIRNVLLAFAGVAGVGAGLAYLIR

Tests used:
[1] = target: T1, S-tagged WT BAK (human) (UniProt Q16611); experiment: pull-down; S-tagged BAK or BAK F161A transfected into Bak−/−Bax−/− MEFs with 10 μM Q-VD-OPh for 24 h; CHAPS lysates (400 μg) incubated 24 h at 4 °C with S-protein agarose, blotted for the indicated proteins
T1 sequence: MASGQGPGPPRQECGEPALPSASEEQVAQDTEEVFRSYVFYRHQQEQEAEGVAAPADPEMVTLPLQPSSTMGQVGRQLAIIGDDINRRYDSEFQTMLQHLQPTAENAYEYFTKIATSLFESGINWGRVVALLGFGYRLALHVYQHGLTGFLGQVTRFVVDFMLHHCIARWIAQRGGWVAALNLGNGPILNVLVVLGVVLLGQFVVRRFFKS

[2] = target: T2, S-tagged F161A BAK (human) (UniProt Q16611); experiment: as above
T2 sequence: T1 sequence with F161A

Substance: BCL2 (in MEFs) (from UniProt P10417 1-236)
- binding [1]: binds
- binding [2]: binds

Substance: BCLXL (in MEFs) (from UniProt Q64373-1 1-233)
- binding [1]: binds
- binding [2]: binds

Substance: MCL1 (in MEFs) (from UniProt P97287 1-331)
- binding [1]: binds
- binding [2]: binds
